The test concerns the target T1, FLAG-POU3F2 (UniProt P20265).
T1 sequence: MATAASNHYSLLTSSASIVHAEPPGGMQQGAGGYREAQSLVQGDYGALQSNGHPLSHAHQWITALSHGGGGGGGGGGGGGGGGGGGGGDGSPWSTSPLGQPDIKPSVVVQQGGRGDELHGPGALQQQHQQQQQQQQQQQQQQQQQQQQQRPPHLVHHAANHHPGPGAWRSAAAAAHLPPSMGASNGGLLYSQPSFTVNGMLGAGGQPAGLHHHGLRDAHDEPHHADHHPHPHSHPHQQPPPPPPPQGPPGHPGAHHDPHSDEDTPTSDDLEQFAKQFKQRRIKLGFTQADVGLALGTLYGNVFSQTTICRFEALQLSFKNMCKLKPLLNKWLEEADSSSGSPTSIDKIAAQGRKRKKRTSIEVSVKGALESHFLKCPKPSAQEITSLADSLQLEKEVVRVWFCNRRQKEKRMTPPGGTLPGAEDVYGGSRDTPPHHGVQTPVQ
Nature of the test: co-IP; immunoprecipitation of POU3F2 in HEK293T cells overexpressing HA-ADNP, FLAG-POU3F2 or both, followed by western blot. A general note: A western blot detects proteins with antibodies after separation by electrophoresis.

These are yes or no findings as the source states them, for the method shown. In cells and extracts the contact can be indirect. Some binding calls cover weakened binding; strength is not graded here. Sequences can lack the tags named with a protein.

B1: HA-ADNP (protein, UniProt Q9H2P0 1-1102)
chain: MFQLPVNNLGSLRKARKTVKKILSDIGLEYCKEHIEDFKQFEPNDFYLKNTTWEDVGLWDPSLTKNQDYRTKPFCCSACPFSSKFFSAYKSHFRNVHSEDFENRILLNCPYCTFNADKKTLETHIKIFHAPNASAPSSSLSTFKDKNKNDGLKPKQADSVEQAVYYCKKCTYRDPLYEIVRKHIYREHFQHVAAPYIAKAGEKSLNGAVPLGSNAREESSIHCKRCLFMPKSYEALVQHVIEDHERIGYQVTAMIGHTNVVVPRSKPLMLIAPKPQDKKSMGLPPRIGSLASGNVRSLPSQQMVNRLSIPKPNLNSTGVNMMSSVHLQQNNYGVKSVGQGYSVGQSMRLGLGGNAPVSIPQQSQSVKQLLPSGNGRSYGLGSEQRSQAPARYSLQSANASSLSSGQLKSPSLSQSQASRVLGQSSSKPAAAATGPPPGNTSSTQKWKICTICNELFPENVYSVHFEKEHKAEKVPAVANYIMKIHNFTSKCLYCNRYLPTDTLLNHMLIHGLSCPYCRSTFNDVEKMAAHMRMVHIDEEMGPKTDSTLSFDLTLQQGSHTNIHLLVTTYNLRDAPAESVAYHAQNNPPVPPKPQPKVQEKADIPVKSSPQAAVPYKKDVGKTLCPLCFSILKGPISDALAHHLRERHQVIQTVHPVEKKLTYKCIHCLGVYTSNMTASTITLHLVHCRGVGKTQNGQDKTNAPSRLNQSPSLAPVKRTYEQMEFPLLKKRKLDDDSDSPSFFEEKPEEPVVLALDPKGHEDDSYEARKSFLTKYFNKQPYPTRREIEKLAASLWLWKSDIASHFSNKRKKCVRDCEKYKPGVLLGFNMKELNKVKHEMDFDAEWLFENHDEKDSRVNASKTADKKLNLGKEDDSSSDSFENLEEESNESGSPFDPVFEVEPKISNDNPEEHVLKVIPEDASESEEKLDQKEDGSKYETIHLTEEPTKLMHNASDSEVDQDDVVEWKDGASPSESGPGSQQVSDFEDNTCEMKPGTWSDESSQSEDARSSKPAAKKKATMQGDREQLKWKNSSYGKVEGFWSKDQSQWKNASENDERLSNPQIEWQNSTIDSEDGEQFDNMTDGVAEPMHGSLAGVKLSSQQA
B1: the binding result was “binds”.

The values are drawn from PMC12677912.
